PubChem BioAssay AID652243 – Drosophila RNAi Screening Center, 2013
In all, the deposit lists about 24,000 reagents; this is a random part of those that have a named target and a result. Of all reagents, 246 (1%) were called active. 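Plates not normalised; calls are printed but the firefly/Renilla ratio behind them is not deposited; fold cut for lowering reported inconsistently.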 Raw values are not corrected between plates. The numbers tell different reagents against one gene apart. Names joined by + are all predicted targets of the reagent. No sequences are given here. The record does not give: the amount of reagent.

Purpose: 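Fly genes required for human androgen receptor driven transcription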 (primary screen)
Cell system: Drosophila S2R+ cells
Reagent: long dsRNA against Drosophila genes
Timing: 72 h (48 h, then 24 h hormone)
Conditions: synthetic androgen R1881 at 10 nM for 24 h
Read-out: 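Firefly light from an androgen-responsive reporter and Renilla control light per well, raw and unnormalised, for each of two replicates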
Direction: firefly reporter light: higher = more light from androgen-responsive reporter; Renilla control light: higher = more constitutive control signal (cell number, transfection)
Active means: 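Hit when the log firefly-to-Renilla ratio dropped or increased by a fixed fold versus the mean of GFP or LacZ controls across duplicate plates; lowering cut given as 1.5 and as 3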
Calls: active = hit: reporter lowered or raised; inactive = no hit

no.	gene knocked down	dsRNA no.	firefly reporter light, replicate 1	firefly reporter light, replicate 2	Renilla control light, replicate 1	Renilla control light, replicate 2	Call
1	LpR2	1	2.48e5	2.63e5	5.35e5	8.36e5	inactive
2	LpR2	2	76466	1.27e5	1.05e5	1.76e5	inactive
3	LpR2	3	88449	80311	4.90e5	4.99e5	inactive
4	LpR2	4	3.01e5	3.90e5	4.32e5	4.48e5	inactive
5	lncRNA:CR43372	1	3.09e5	3.23e5	3.50e6	3.56e6	inactive
6	CG3955	1	8.45e5	7.83e5	2.08e6	2.08e6	inactive
7	CG13590	1	4.29e5	8.95e5	1.28e6	2.07e6	inactive
8	CG13590	2	5.76e5	2.83e5	1.83e6	1.42e6	inactive
9	puf	1	1.30e6	1.53e6	7.50e5	6.25e5	inactive
10	Dnai2	1	2.94e5	1.92e5	2.71e6	1.76e6	inactive
11	nAChRbeta3	1	8.56e5	7.05e5	2.73e6	2.02e6	inactive
12	RYa-R	1	2.14e5	1.76e5	7.56e5	8.27e5	inactive
13	tsl	1	2.71e5	3.06e5	2.94e6	3.20e6	inactive
14	XNP	1	72358	93637	4.49e5	4.98e5	inactive
15	XNP	2	3.71e5	3.61e5	4.19e5	5.57e5	inactive
16	CG7011 + Prp31	1	9.39e5	9.94e5	9.71e5	1.59e6	inactive
17	dally	1	3.35e5	2.59e5	4.91e5	3.62e5	inactive
18	dally	2	4.30e5	1.15e6	9.37e5	2.23e6	inactive
19	Snx16	1	65199	87832	9.37e5	9.37e5	inactive
20	CG3198	1	3.92e5	4.45e5	3.16e6	3.25e6	inactive
21	CG3198	2	1.35e5	1.40e5	1.39e6	1.33e6	inactive
22	CG3198	3	9.91e5	8.27e5	1.91e6	1.74e6	inactive
23	Nopp140	1	3.49e5	3.70e5	2.87e6	2.78e6	inactive
24	Nopp140	2	3.98e5	3.05e5	3.46e5	3.95e5	inactive
25	Nopp140	3	7.24e5	7.12e5	1.69e6	1.76e6	inactive
26	CG3770	1	1.00e6	1.03e6	1.29e6	1.58e6	inactive
27	Hou	1	1.31e5	96741	1.01e6	1.18e6	inactive
28	Hou	2	6.67e5	6.51e5	2.89e6	2.96e6	inactive
29	Hou	3	3.66e5	3.76e5	6.86e5	6.07e5	inactive
30	ppk27	1	1.90e5	2.12e5	2.31e6	3.97e6	inactive
31	ppk27	2	6.57e5	7.05e5	1.87e6	2.38e6	inactive
32	btn	1	98918	80207	1.72e5	1.10e5	inactive
33	CG13359	1	2.74e5	3.00e5	4.12e6	3.43e6	inactive
34	CG13359	2	4.82e5	4.31e5	7.98e5	4.02e5	inactive
35	Nop17l	1	1.16e6	7.31e5	1.61e6	7.16e5	inactive
36	Nop17l	2	3.97e5	4.59e5	1.57e6	1.57e6	inactive
37	CG31817	1	1.60e5	1.38e5	4.59e5	5.43e5	inactive
38	CG31817	2	3.25e5	4.04e5	2.53e6	3.08e6	inactive
39	CG31817	3	4.18e5	9.28e5	5.99e5	8.48e5	inactive
40	Gr58c	1	2.35e5	1.80e5	1.71e6	8.61e5	inactive
41	obst-G	1	1.21e5	71816	1.30e6	4.74e5	inactive
42	CG6106	1	5.02e5	8.06e5	4.16e6	5.69e6	inactive
43	CG6106	2	4.71e5	4.95e5	1.03e6	1.25e6	inactive
44	CG13847	1	7.16e5	5.38e5	1.48e6	1.12e6	inactive
45	CG2061	1	1.03e5	1.12e5	7.59e5	7.44e5	inactive
46	mAcon2	1	1.32e5	1.43e5	2.51e6	2.65e6	inactive
47	mAcon2	2	8.24e5	6.74e5	8.22e5	1.08e6	inactive
48	bocks	1	47355	39307	3.36e5	3.60e5	inactive
49	CG14655	1	5.00e5	6.18e5	3.23e6	4.47e6	inactive
50	CG14655	2	4.56e5	3.88e5	8.50e5	9.50e5	inactive
51	wor	1	1.75e5	1.96e5	2.27e6	2.77e6	inactive
52	wor	2	4.20e5	3.03e5	9.31e5	5.81e5	inactive
53	Jheh3	1	1.16e6	8.54e5	9.08e5	7.88e5	inactive
54	Jheh3	2	5.85e5	5.02e5	1.50e6	1.05e6	inactive
55	Ndfip	1	60803	43940	3.44e5	3.26e5	inactive
56	key	1	1.06e6	6.80e5	1.29e6	1.24e6	inactive
57	key	2					inactive
58	drk	1	8.39e5	1.14e6	9.11e5	1.19e6	inactive
59	drk	2	5.84e5	4.50e5	1.53e6	9.65e5	inactive
60	CG4752	1	4.65e5	4.34e5	2.72e6	2.58e6	inactive
61	CG4752	2	2.91e5	2.74e5	4.92e5	5.09e5	inactive
62	CG16775	1	3.18e5	2.74e5	3.26e6	3.21e6	inactive
63	CG4887	1	1.15e5	98633	1.20e6	1.14e6	inactive
64	CG4887	2	6.26e5	6.19e5	2.65e6	2.75e6	inactive
65	CG4887	3	8.27e5	1.13e6	7.33e5	1.15e6	inactive
66	CG7213	1	2.37e5	2.57e5	2.89e6	2.75e6	inactive
67	Alr	1	2.69e5	1.10e5	7.01e5	2.82e5	inactive
68	SWIP	1	4.35e5	4.27e5	3.69e6	2.94e6	inactive
69	Zip42C.2	1	4.48e5	3.81e5	2.19e6	2.09e6	inactive
70	Zip42C.2	2	3.82e5	3.19e5	1.00e6	8.69e5	inactive
71	Zip42C.2	3	7.96e5	8.70e5	1.44e6	1.57e6	inactive
72	CG3942	1	1.36e5	1.60e5	1.50e6	2.04e6	inactive
73	CG3942	2	3.68e5	3.38e5	5.44e5	5.60e5	inactive
74	VhaM9.7-b	1	3.25e5	2.38e5	2.56e6	2.04e6	inactive

Reprinted from the listing for reference:
no.	gene knocked down	dsRNA no.	firefly reporter light, replicate 1	firefly reporter light, replicate 2	Renilla control light, replicate 1	Renilla control light, replicate 2	Call
36	Nop17l	2	3.97e5	4.59e5	1.57e6	1.57e6	inactive
37	CG31817	1	1.60e5	1.38e5	4.59e5	5.43e5	inactive
38	CG31817	2	3.25e5	4.04e5	2.53e6	3.08e6	inactive
39	CG31817	3	4.18e5	9.28e5	5.99e5	8.48e5	inactive
40	Gr58c	1	2.35e5	1.80e5	1.71e6	8.61e5	inactive
41	obst-G	1	1.21e5	71816	1.30e6	4.74e5	inactive
42	CG6106	1	5.02e5	8.06e5	4.16e6	5.69e6	inactive
43	CG6106	2	4.71e5	4.95e5	1.03e6	1.25e6	inactive
44	CG13847	1	7.16e5	5.38e5	1.48e6	1.12e6	inactive
45	CG2061	1	1.03e5	1.12e5	7.59e5	7.44e5	inactive
